Data as given in the supplement of paper PMC12823440, “Inhibitors supercharge kinase turnover through native proteolytic circuits” (Nature, 2025).
Structures can show the parent of a compound that is named as a salt. The list shows a part of the results. The calls rarely recur for the same compound in another form.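 Kinases were expressed as nanoluciferase fusions in K562 cells and luminescence was read every 4 h between 2 and 18 h as percent of control, DMSO set to 100% and a positive control to 0%. A time point counts as decreased when the signal drops significantly (2 sigma). The hit call is the authors' own, does not follow from the count of time points alone, and its rule is not shown.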

Sequences of proteins named here, by UniProt entry; tags and fusion partners are left off. A change or cut given only in a name is not applied to a line headed by its entry.
UniProt P36888, whole entry: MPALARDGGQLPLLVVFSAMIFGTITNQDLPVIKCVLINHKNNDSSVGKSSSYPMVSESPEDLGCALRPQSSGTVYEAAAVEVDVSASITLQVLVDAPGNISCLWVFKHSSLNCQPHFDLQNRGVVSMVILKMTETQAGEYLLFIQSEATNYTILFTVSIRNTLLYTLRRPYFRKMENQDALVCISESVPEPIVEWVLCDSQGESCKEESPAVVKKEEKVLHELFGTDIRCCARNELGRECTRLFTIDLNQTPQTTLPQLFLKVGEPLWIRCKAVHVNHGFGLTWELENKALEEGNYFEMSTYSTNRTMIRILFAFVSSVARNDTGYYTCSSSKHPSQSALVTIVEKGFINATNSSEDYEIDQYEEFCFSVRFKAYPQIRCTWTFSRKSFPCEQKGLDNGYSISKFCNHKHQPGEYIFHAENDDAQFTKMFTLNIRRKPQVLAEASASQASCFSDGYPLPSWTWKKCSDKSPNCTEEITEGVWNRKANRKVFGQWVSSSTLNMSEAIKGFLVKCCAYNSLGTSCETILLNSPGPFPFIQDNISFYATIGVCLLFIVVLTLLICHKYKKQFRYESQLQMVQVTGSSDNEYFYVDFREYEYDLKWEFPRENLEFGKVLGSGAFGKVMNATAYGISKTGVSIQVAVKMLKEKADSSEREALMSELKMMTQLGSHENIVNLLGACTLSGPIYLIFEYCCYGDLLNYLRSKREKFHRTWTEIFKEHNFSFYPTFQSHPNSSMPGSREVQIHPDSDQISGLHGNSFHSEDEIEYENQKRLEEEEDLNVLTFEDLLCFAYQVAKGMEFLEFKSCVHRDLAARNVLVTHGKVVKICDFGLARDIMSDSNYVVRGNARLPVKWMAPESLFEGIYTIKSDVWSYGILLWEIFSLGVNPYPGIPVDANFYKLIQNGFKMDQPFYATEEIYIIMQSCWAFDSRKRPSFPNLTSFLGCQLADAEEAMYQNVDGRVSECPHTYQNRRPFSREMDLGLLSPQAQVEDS
UniProt P06241, whole entry, looked up: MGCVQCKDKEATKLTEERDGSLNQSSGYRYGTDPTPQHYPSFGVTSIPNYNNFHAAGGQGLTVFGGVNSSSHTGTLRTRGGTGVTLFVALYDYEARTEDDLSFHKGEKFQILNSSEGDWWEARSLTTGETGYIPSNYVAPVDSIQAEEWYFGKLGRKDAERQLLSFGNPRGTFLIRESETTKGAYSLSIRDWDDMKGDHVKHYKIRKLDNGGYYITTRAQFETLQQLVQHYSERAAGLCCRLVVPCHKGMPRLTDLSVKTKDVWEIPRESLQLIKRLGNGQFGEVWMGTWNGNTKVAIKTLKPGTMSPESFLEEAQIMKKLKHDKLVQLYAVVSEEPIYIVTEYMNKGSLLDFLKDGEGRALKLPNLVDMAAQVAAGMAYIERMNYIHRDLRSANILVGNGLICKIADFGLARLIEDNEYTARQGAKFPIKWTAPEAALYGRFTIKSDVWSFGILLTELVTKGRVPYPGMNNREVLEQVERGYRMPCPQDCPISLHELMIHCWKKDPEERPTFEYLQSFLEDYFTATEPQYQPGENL
UniProt P49840: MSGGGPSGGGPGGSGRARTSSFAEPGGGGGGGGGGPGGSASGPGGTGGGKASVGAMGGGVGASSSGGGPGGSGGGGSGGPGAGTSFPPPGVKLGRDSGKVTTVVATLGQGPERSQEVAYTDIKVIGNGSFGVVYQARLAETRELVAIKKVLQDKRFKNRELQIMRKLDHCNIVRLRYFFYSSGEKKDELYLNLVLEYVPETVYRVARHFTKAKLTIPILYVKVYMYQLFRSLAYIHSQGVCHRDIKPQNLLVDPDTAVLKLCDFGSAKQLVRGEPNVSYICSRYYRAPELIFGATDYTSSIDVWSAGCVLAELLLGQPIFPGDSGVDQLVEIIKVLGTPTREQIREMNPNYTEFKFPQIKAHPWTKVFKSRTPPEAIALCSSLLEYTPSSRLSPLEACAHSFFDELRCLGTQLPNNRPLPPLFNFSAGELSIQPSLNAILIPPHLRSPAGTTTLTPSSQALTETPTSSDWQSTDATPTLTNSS
UniProt P23458: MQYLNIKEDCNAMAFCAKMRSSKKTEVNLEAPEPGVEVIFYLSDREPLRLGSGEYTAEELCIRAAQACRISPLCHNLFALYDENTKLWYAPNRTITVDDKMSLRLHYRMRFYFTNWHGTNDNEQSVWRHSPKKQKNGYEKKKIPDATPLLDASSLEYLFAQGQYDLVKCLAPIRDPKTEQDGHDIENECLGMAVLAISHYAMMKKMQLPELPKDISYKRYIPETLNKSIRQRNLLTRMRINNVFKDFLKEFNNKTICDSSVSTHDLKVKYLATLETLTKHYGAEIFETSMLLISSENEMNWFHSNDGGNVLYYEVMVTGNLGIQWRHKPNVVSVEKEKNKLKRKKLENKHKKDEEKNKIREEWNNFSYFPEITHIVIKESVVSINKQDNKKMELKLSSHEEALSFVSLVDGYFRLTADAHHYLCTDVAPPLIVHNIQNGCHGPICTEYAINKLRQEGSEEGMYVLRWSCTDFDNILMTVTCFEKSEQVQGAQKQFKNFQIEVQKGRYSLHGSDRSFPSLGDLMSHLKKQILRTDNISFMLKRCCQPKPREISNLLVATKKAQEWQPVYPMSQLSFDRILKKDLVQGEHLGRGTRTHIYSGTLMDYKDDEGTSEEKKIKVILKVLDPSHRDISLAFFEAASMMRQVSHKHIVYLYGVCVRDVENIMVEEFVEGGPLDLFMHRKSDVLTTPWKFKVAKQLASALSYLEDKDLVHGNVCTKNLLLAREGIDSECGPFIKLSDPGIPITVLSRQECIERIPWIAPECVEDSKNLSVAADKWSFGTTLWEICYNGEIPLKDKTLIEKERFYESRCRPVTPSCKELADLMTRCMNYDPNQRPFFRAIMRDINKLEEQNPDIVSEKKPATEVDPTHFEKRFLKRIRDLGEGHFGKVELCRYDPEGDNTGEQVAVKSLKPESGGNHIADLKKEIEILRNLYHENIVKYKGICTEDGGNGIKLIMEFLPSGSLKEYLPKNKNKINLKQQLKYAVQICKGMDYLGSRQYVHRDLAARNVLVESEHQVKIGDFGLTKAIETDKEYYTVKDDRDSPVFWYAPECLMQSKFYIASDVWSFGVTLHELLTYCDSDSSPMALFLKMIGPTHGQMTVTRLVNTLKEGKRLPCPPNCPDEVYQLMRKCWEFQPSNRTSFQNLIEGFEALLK
UniProt P53667: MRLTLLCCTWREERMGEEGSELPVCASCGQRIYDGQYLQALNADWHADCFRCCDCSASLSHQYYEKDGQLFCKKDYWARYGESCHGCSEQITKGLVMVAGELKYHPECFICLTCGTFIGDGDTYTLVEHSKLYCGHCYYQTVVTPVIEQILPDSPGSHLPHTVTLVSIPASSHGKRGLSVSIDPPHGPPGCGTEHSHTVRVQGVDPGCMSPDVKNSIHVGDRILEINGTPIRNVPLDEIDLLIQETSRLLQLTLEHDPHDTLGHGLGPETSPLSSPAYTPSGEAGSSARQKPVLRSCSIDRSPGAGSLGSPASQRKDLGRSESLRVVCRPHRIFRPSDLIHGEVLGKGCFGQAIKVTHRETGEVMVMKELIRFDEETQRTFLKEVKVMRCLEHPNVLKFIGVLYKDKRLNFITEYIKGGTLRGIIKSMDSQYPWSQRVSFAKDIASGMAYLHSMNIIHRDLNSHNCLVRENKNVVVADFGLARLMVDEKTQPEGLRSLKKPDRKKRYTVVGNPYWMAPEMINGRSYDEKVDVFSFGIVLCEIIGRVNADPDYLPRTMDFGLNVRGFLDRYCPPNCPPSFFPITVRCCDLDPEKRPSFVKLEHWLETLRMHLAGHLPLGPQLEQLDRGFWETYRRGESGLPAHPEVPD
UniProt P53671: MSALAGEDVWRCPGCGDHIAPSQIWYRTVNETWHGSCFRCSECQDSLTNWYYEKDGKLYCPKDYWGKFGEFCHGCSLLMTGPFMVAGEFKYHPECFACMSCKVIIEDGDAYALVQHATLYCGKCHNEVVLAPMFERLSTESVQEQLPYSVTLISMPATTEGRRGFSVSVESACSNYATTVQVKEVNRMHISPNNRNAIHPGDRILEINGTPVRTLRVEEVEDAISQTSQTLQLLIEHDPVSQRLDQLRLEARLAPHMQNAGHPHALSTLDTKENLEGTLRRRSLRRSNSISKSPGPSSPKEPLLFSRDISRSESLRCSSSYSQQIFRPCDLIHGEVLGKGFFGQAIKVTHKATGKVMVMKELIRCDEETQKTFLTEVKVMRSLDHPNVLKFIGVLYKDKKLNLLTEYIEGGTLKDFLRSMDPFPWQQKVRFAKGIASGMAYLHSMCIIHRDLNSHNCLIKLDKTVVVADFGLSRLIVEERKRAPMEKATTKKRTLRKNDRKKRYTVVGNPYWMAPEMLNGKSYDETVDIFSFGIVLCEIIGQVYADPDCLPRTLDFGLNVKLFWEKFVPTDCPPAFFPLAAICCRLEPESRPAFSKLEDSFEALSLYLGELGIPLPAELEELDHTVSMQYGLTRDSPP
UniProt Q8IWU2: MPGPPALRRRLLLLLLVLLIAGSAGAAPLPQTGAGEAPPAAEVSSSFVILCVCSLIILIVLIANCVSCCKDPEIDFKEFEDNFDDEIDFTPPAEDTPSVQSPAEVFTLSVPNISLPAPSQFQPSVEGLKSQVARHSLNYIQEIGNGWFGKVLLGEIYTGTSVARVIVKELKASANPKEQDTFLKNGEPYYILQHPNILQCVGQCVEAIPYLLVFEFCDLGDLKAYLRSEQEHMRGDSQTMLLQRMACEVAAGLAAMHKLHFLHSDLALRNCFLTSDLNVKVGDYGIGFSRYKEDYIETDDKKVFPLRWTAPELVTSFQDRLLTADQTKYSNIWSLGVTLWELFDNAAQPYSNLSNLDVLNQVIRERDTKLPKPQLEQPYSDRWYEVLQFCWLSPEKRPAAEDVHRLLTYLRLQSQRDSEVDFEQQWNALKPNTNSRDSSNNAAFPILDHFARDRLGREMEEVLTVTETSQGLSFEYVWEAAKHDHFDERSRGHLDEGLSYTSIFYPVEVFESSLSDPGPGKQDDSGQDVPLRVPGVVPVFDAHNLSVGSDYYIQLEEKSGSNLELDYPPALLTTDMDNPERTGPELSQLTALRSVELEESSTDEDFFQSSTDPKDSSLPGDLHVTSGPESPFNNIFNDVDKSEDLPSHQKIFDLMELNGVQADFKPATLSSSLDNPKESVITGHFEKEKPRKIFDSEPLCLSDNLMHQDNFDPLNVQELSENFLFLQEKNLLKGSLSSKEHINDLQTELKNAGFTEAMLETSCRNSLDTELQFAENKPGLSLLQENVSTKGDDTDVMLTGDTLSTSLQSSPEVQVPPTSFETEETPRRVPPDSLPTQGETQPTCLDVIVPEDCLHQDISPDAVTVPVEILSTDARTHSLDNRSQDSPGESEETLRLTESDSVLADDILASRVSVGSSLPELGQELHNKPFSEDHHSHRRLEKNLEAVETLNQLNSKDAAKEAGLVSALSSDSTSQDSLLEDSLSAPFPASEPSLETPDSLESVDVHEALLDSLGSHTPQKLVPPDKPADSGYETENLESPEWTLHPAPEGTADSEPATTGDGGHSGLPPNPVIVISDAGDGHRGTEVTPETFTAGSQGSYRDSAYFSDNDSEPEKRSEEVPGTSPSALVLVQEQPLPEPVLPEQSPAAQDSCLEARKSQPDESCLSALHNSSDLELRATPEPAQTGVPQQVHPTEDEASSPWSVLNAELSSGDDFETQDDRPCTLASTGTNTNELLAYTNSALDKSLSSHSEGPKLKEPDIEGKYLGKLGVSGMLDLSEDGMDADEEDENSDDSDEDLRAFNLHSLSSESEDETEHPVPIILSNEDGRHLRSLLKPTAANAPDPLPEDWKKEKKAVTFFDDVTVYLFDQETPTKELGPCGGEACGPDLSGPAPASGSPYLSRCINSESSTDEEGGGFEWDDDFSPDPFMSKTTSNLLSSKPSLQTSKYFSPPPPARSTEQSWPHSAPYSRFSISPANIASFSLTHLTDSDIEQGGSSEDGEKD
UniProt Q9BUB5: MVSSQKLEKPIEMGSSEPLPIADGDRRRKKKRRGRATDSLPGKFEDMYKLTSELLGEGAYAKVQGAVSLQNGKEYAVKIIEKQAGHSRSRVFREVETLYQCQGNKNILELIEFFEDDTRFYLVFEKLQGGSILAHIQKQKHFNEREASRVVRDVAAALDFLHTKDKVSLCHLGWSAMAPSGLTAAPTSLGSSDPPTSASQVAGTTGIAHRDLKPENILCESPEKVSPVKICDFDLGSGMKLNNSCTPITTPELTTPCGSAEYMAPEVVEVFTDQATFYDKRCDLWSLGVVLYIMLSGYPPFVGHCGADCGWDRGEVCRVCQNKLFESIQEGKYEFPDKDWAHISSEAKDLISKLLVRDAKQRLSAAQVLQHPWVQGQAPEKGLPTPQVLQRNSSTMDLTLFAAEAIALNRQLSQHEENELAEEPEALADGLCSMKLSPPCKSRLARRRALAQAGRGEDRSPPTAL

Key:
Test in all cases: number of time points (of 5) at which kinase-Nluc abundance scored as decreased, DMSO-normalised (count); higher = more persistent destabilization
Conditions in all cases: K562; 2-18 h
FLT3 = FLT3 (UniProt P36888)
FYN = FYN (UniProt P06241)
GSK3A = GSK3A (UniProt P49840)
HER2 = HER2 (UniProt P04626)
INSRR = INSRR (UniProt P14616)
IRAK3 = IRAK3 (UniProt Q9Y616)
JAK1 = JAK1 (UniProt P23458)
LCK = LCK (UniProt P06239)
LIMK1 = LIMK1 (UniProt P53667)
LIMK2 = LIMK2 (UniProt P53671)
LMTK2 = LMTK2 (UniProt Q8IWU2)
LYN = LYN (UniProt P07948)
MAP2K1 = MAP2K1 (UniProt Q02750)
MAP2K2 = MAP2K2 (UniProt P36507)
MAP4K2 = MAP4K2 (UniProt Q12851)
MAPK1 = MAPK1 (UniProt P28482)
MAPK4 = MAPK4 (UniProt P31152)
MAPKAPK2 = MAPKAPK2 (UniProt P49137)
MKNK1 = MKNK1 (UniProt Q9BUB5)
NTRK2 = NTRK2 (UniProt Q16620)

Measured: number of time points

O=C1NC(=O)C(=Cc2ccc(-c3ccc(F)cc3)o2)S1 (stereo in doubt) (10 µM)
0: all assays above

Cc1ccc(-c2c(C(=O)CCl)n(CCCO)c3ncnc(N)c23)cc1 (10 µM)
2: LMTK2 | LYN | MAPK4
3: HER2 | IRAK3 | LIMK1
4: LIMK2
5: FYN
1: NTRK2
0: all other assays above

Cc1cc(NC(=O)c2cccc(NC(=O)/C=C/CN(C)C)c2)ccc1Nc1nccc(-c2cccnc2)n1 (10 µM)
2: LYN
1: LIMK2
0: all other assays above

Cc1csc(-c2nnc(Nc3ccc(Oc4ncccc4-c4ccnc(N)n4)cc3)c3ccccc23)c1 (2.5 µM)
0: all assays above

COc1ccc2c(c1O)OC(C)(C)c1c-2ccc2c1C(=O)N(c1ccc(C(=O)c3ccccc3)cc1)C2=O [Ampkinone] (10 µM)
3: LIMK2
0: all other assays above

COc1ccc2[nH]cc(/C=C3\C(=O)Nc4ccc(NC(=O)CCN5CCCCC5)cc43)c2c1 (2.5 µM)
0: all assays above

O=C(Nc1cc(Oc2cc(F)c(NC(=O)C3(C(=O)Nc4ccc(F)cc4)CC3)cc2F)ccn1)C1CC1 [Altiratinib] (10 µM)
0: all assays above

CNc1nc(Nc2cnn(C3CCN(C4COC4)CC3F)c2Cl)ncc1C(F)(F)F (stereo not given) (10 µM)
0: all assays above

CC(C)(NS(=O)(=O)c1ccc2c(Cl)cnc(N=C(N)N)c2c1)C(=O)O (10 µM)
0: all assays above

O=C(/C=C/c1ccc(O[C@@H]2O[C@H](CO)[C@@H](O)[C@H](O)[C@H]2O[C@@H]2OC[C@](O)(CO)[C@H]2O)cc1)c1ccc(O)cc1O [Isoliquiritin apioside] (10 µM)
0: all assays above

O=C(NCCCNc1nc(Nc2cccc(NC(=O)N3CCCC3)c2)ncc1I)c1cccs1 (2.5 µM)
0: all assays above

OC[C@H]1O[C@@H](Oc2cc3c(O)cc(O)cc3[o+]c2-c2cc(O)c(O)c(O)c2)[C@H](O)[C@@H](O)[C@@H]1O [Delphinidin 3-glucoside (chloride)] (10 µM)
0: all assays above

O=C(Nc1ccc2[nH]nc(-c3ccncc3)c2c1)[C@@H]1CCN(CC(=O)N2CCN(c3ccc(-c4ncccn4)cc3)CC2)C1 (2.5 µM)
0: all assays above

CC(c1ccc(-c2cnc3c(-c4ccc(S(N)(=O)=O)c5ccccc45)cnn3c2)cc1)N1CCCC1 (stereo not given) (2.5 µM)
0: all assays above

CN(C)CCN(Cc1ccc(Cl)cc1)c1ccccn1 [Chloropyramine hydrochloride] (10 µM)
0: all assays above

CN1CCN(c2ccc(Nc3ncc4nc(Nc5ccccc5)n([C@@H]5CCN(S(=O)(=O)C6CC6)C5)c4n3)cc2)CC1 (2.5 µM)
2: JAK1
0: all other assays above

O=C(NC(NC(=S)Nc1ccc(F)c([N+](=O)[O-])c1)C(Cl)(Cl)Cl)C(c1ccccc1)c1ccccc1 (stereo not given) (10 µM)
0: all assays above

COc1ccc(CC(=O)Nc2nc3c(s2)CCc2ccccc2-3)cc1OC (10 µM)
0: all assays above

CN(CCNc1ccc2ncc(-c3ccc(C(N)=O)cc3)n2n1)C(=O)OC(C)(C)C (10 µM)
0: all assays above

Cc1cc(Nc2nc(N[C@@H](C)c3ccc(F)cc3)c(C#N)cc2F)n[nH]1 (10 µM)
2: INSRR
1: LIMK1 | LMTK2
0: all other assays above

Cc1c(NC(=O)OC[C@@H]2COCCN2)cn2ncnc(Nc3ccc4c(cnn4Cc4cccc(F)c4)c3)c12 (10 µM)
0: all assays above

C=C1C(=O)O[C@@H]2C[C@@]3(C)CCC[C@H](C)C3=C[C@H]12 [Alantolactone] (10 µM)
0: all assays above

C[C@@H]1O[C@@H](O[C@H]2[C@H](Oc3cc(O)c4c(=O)cc(-c5ccc(O)cc5)oc4c3)O[C@H](CO)[C@@H](O)[C@@H]2O)[C@H](O)[C@H](O)[C@H]1O [Rhoifolin] (10 µM)
0: all assays above

CNCc1ccccc1-c1csc([C@@H](C)Nc2nc(C)nc3cc(OC)c(OC)cc23)c1 (2.5 µM)
1: LIMK2
2: LIMK1 | MAPK4
0: all other assays above

Already shown: 2 of the compounds above.
Cc1c(NC(=O)OC[C@@H]2COCCN2)cn2ncnc(Nc3ccc4c(cnn4Cc4cccc(F)c4)c3)c12 (10 µM)
0: all assays above

C=C1C(=O)O[C@@H]2C[C@@]3(C)CCC[C@H](C)C3=C[C@H]12 [Alantolactone] (10 µM)
0: all assays above
